Values quoted from earlier work in US20020143065A1, “Developing a delivery system for multi-pharmaceutical active materials at various release rates” (priority 2000, published 2002).

Test system: noradrenaline reassimilation

COc1cccc(C2(O)CCCCC2CN(C)C)c1 (single isomer, unassigned; (-)) [(−) enantiomer, (−) tramadol]
inhibition of noradrenaline reassimilation: significant inhibition
